# In PubChem BioAssay AID248 (DTP/NCI, 2004):
# The list shows only some results of the screen, not a fair sample: it gathers tests that were run many times, whatever their T/C, doses with no T/C, and many T/C values between a quarter and a half above the control. Other doses and runs of a compound stand elsewhere. T/C is the treated group as % of the vehicle group. Some doses have a count of surviving animals in place of a T/C: the source files T/C as zero there, which appears to mark a toxic dose or a test without result, not a measured value. Some survivor counts are full or nearly so, which does not show that the dose was tolerated: the source hardly ever lists a survival T/C far under the control, and the zero likely stands for such cases as well. Survivors were counted at the toxicity check, usually on the fifth day, unless a day is given; later deaths do not show. Schedules are NCI's codes, read here as Q, the interval in days (D) or hours (H), X, the number of doses. Marks such as (2×) stand for listed records that agree. Some entries were tested several times; their values stand side by side, smallest first. For survival time, the PubChem record calls one and a half times the control and up active, and a quarter to a half above the control has no call in these data; cut-offs in other NCI protocols can differ. Some T/C values carry the count of animals alive at the toxicity check (mostly the fifth day); without a count, all were alive then.
# Test system: L1210 leukemia ip in BDF1 mice, survival T/C
# Test: NCI In Vivo Anticancer Drug Screen. Data for tumor model L1210 Leukemia (intraperitoneal) in B6D2F1 (BDF1) mice
# Conditions: T/C endpoint: mean survival time, higher T/C = longer survival
# [1] = dose: 50.0 mg/kg/injection, schedule: Q01DX009 (ip), vehicle: saline with Tween-80
# [2] = dose: 100.0 mg/kg/injection, schedule: Q04DX003 (ip), vehicle: saline
# [3] = dose: 200.0 mg/kg/injection, schedule: Q01DX001 (ip), vehicle: saline
# [4] = dose: 400.0 mg/kg/injection, schedule: Q01DX001 (ip), vehicle: saline
compound,measurement,setting,value
CN(C)/N=C\c1ccc([N+](C)(C)C)cc1,survivor count,"dose: 100.0 mg/kg/injection, schedule: Q04DX003 (ip), vehicle: Klucel (hydroxypropylcellulose) (HPC)",2 of 3
same,survivor count,"dose: 200.0 mg/kg/injection, schedule: Q04DX003 (ip), vehicle: Klucel (hydroxypropylcellulose) (HPC)",0 of 3
same,survivor count,"dose: 400.0 mg/kg/injection, schedule: Q04DX003 (ip), vehicle: Klucel (hydroxypropylcellulose) (HPC)",0 of 3
O=C(O)Cc1ccccc1,survivor count,"dose: 300.0 mg/kg/injection, schedule: Q01DX001 (ip), vehicle: carboxymethylcellulose (CMC)",5 of 6
same,survivor count,"dose: 300.0 mg/kg/injection, schedule: Q01DX001 (ip), vehicle: saline",3 of 6
O=C1NCN(c2ccccc2)C12CCNCC2,survivor count,"dose: 200.0 mg/kg/injection, schedule: Q04DX003 (ip), vehicle: saline sonified",0 of 6
same,survivor count,"dose: 400.0 mg/kg/injection, schedule: Q04DX003 (ip), vehicle: saline sonified",0 of 6
CC(C)(C)C1CCC(=O)C1 (configuration not stated),survivor count,[1],0 of 3
same,survivor count,"dose: 100.0 mg/kg/injection, schedule: Q01DX009 (ip), vehicle: saline with Tween-80",0 of 3
same,survivor count,"dose: 200.0 mg/kg/injection, schedule: Q01DX009 (ip), vehicle: saline with Tween-80",0 of 3
CCN(CC)CC(=O)NCC(CCN(C)C)(c1ccc2ccccc2c1)C(C)C (configuration not stated),survivor count,"dose: 200.0 mg/kg/injection, schedule: Q01DX009 (ip), vehicle: saline",1 of 6
same,survivor count,"dose: 400.0 mg/kg/injection, schedule: Q01DX009 (ip), vehicle: saline",0 of 6
CC(=O)N(O)CCCCCNC(=O)CCC(=O)N(O)CCCCCNC(=O)CCC(=O)N(O)CCCCCN,T/C,"dose: 125.0 mg/kg/injection, schedule: Q03HX024 (ip), vehicle: clinical formulation, evaluated on day 5",102 % of control (2×)
same,T/C,"dose: 125.0 mg/kg/injection, schedule: Q03HX024 (ip), vehicle: clinical formulation, evaluated on day 45",102 % of control
same,T/C,"dose: 125.0 mg/kg/injection, schedule: Q03HX024 (ip), vehicle: clinical formulation, evaluated on day 60",102 % of control
same,T/C,"dose: 188.0 mg/kg/injection, schedule: Q03HX024 (ip), vehicle: clinical formulation, evaluated on day 5",95 and 106 % of control
same,T/C,"dose: 188.0 mg/kg/injection, schedule: Q03HX024 (ip), vehicle: clinical formulation, evaluated on day 45",103 % of control
same,T/C,"dose: 188.0 mg/kg/injection, schedule: Q03HX024 (ip), vehicle: clinical formulation, evaluated on day 60",106 % of control
same,T/C,"dose: 188.0 mg/kg/injection, schedule: Q03HX024 (ip), vehicle: water, evaluated on day 5","99, 102, 108 % of control"
same,T/C,"dose: 188.0 mg/kg/injection, schedule: Q03HX024 (ip), vehicle: water, evaluated on day 60",108 % of control
same,T/C,"dose: 280.0 mg/kg/injection, schedule: Q03HX024 (ip), vehicle: clinical formulation, evaluated on day 5",103 and 106 % of control
same,T/C,"dose: 280.0 mg/kg/injection, schedule: Q03HX024 (ip), vehicle: clinical formulation, evaluated on day 45",103 % of control
same,T/C,"dose: 280.0 mg/kg/injection, schedule: Q03HX024 (ip), vehicle: clinical formulation, evaluated on day 60",106 % of control
same,T/C,"dose: 280.0 mg/kg/injection, schedule: Q03HX024 (ip), vehicle: water, evaluated on day 5","97, 101, 102 % of control"
same,T/C,"dose: 280.0 mg/kg/injection, schedule: Q03HX024 (ip), vehicle: water, evaluated on day 60",102 % of control
c1ccc2c(C3CCCCN3)c[nH]c2c1 (configuration not stated),survivor count,"dose: 50.0 mg/kg/injection, schedule: Q01DX009 (ip), vehicle: saline",6 of 6
same,survivor count,[2],5 of 6
same,survivor count,[3],1 of 6
same,survivor count,[4],0 of 6
CC(=O)c1ccc(N)cc1,survivor count,"dose: 400.0 mg/kg/injection, schedule: Q01DX009 (ip), vehicle: other",1 of 3
CCOC(=O)C(C)C(O)c1ccc(OC)cc1 (configuration not stated),survivor count,[1],3 of 3
CC1=NC(C(=O)Cl)NN1c1ccccc1 (configuration not stated),survivor count,[3],6 of 6
same,survivor count,[4],3 of 6
CCCCNC(C)(C)CO,survivor count,[2],3 of 6
same,survivor count,"dose: 200.0 mg/kg/injection, schedule: Q04DX003 (ip), vehicle: saline",1 of 6
same,survivor count,"dose: 400.0 mg/kg/injection, schedule: Q04DX003 (ip), vehicle: saline",0 of 6
CN(CCOS(C)(=O)=O)CCOS(C)(=O)=O,T/C,"dose: 0.06 mg/kg/injection, schedule: Q01DX009 (ip), vehicle: saline",125 % of control
same,T/C,"dose: 0.09 mg/kg/injection, schedule: Q01DX009 (ip), vehicle: saline",132 % of control
same,T/C,"dose: 0.11 mg/kg/injection, schedule: Q01DX009 (ip), vehicle: saline",132 % of control
same,T/C,"dose: 0.13 mg/kg/injection, schedule: Q01DX009 (ip), vehicle: saline",145 % of control
same,T/C,"dose: 0.19 mg/kg/injection, schedule: Q01DX009 (ip), vehicle: saline",133 and 134 % of control
same,T/C,"dose: 0.2 mg/kg/injection, schedule: Q01DX009 (ip), vehicle: saline",140 % of control
same,T/C,"dose: 0.29 mg/kg/injection, schedule: Q01DX009 (ip), vehicle: saline",139 % of control
same,T/C,"dose: 0.4 mg/kg/injection, schedule: Q01DX009 (ip), vehicle: saline, evaluated on day 30",127 % of control
same,T/C,"dose: 0.4 mg/kg/injection, schedule: Q01DX009 (ip), vehicle: saline, run until all animals had died",131 % of control
same,T/C,"dose: 0.44 mg/kg/injection, schedule: Q01DX009 (ip), vehicle: saline",130 % of control
same,T/C,"dose: 0.6 mg/kg/injection, schedule: Q01DX001 (ip), vehicle: saline",140 % of control
same,T/C,"dose: 0.6 mg/kg/injection, schedule: Q01DX009 (ip), vehicle: saline",127 % of control
same,T/C,"dose: 0.66 mg/kg/injection, schedule: Q01DX001 (ip), vehicle: saline, evaluated on day 30",143 % of control
same,T/C,"dose: 0.66 mg/kg/injection, schedule: Q01DX001 (ip), vehicle: saline, run until all animals had died",132 % of control
same,survivor count,"dose: 0.66 mg/kg/injection, schedule: Q01DX009 (ip), vehicle: saline",5 of 6 and 6 of 6
same,T/C,"dose: 0.8 mg/kg/injection, schedule: Q01DX009 (ip), vehicle: saline",129 % of control
same,T/C,"dose: 1.0 mg/kg/injection, schedule: Q01DX001 (ip), vehicle: saline, evaluated on day 30",127 and 143 % of control
same,T/C,"dose: 1.0 mg/kg/injection, schedule: Q01DX001 (ip), vehicle: saline, run until all animals had died",132 % of control
same,survivor count,"dose: 1.0 mg/kg/injection, schedule: Q01DX009 (ip), vehicle: saline",5 of 6 and 6 of 6
same,T/C,"dose: 1.2 mg/kg/injection, schedule: Q01DX009 (ip), vehicle: saline",127 % of control
same,T/C,"dose: 1.5 mg/kg/injection, schedule: Q01DX001 (ip), vehicle: saline, evaluated on day 30","123, 138, 140 % of control"
same,T/C,"dose: 1.5 mg/kg/injection, schedule: Q01DX001 (ip), vehicle: saline, run until all animals had died",135 % of control
same,survivor count,"dose: 1.5 mg/kg/injection, schedule: Q01DX009 (ip), vehicle: saline",6 of 6 (2×)
same,survivor count,"dose: 1.6 mg/kg/injection, schedule: Q01DX009 (ip), vehicle: saline",6 of 6
same,survivor count,"dose: 2.2 mg/kg/injection, schedule: Q01DX009 (ip), vehicle: saline",4 of 6 and 5 of 6
same,T/C,"dose: 2.25 mg/kg/injection, schedule: Q01DX001 (ip), vehicle: saline, evaluated on day 30",130 % of control
same,T/C,"dose: 2.25 mg/kg/injection, schedule: Q01DX001 (ip), vehicle: saline, run until all animals had died",137 % of control
same,survivor count,"dose: 2.4 mg/kg/injection, schedule: Q01DX009 (ip), vehicle: saline",6 of 6
same,T/C,"dose: 3.0 mg/kg/injection, schedule: Q01DX001 (ip), vehicle: saline",127 % of control [5 of 6 alive]
same,survivor count,"dose: 12.5 mg/kg/injection, schedule: Q01DX001 (ip), vehicle: saline",0 of 4
same,survivor count,"dose: 25.0 mg/kg/injection, schedule: Q01DX001 (ip), vehicle: saline",0 of 4
same,survivor count,"dose: 50.0 mg/kg/injection, schedule: Q01DX001 (ip), vehicle: saline",0 of 4
same,survivor count,"dose: 100.0 mg/kg/injection, schedule: Q01DX001 (ip), vehicle: saline",0 of 4
same,survivor count,[3],0 of 4
same,survivor count,[4],0 of 4
same,T/C,"dose: 88.0 micrograms/kg/injection, schedule: Q01DX009 (ip), vehicle: saline",147 % of control
